Measured data: PubChem BioAssay AID504774 (Drosophila RNAi Screening Center, 2011)
In all, the deposit lists about 23,000 reagents; below is a random part of those with a known target gene and a result. 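Values are quantile-normalised luminescence on an arbitrary scale; higher means more cells surviving MMS.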 Names joined by + are all predicted targets of the reagent.

- Aim: 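Fly genes whose loss alters survival after alkylation damage to DNA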 (primary screen)
- Cells: Drosophila Kc167 cells
- Reagent: long dsRNA against Drosophila genes, about 0.25 µg dsRNA per well
- Timing: about 6 days: 3 days knock-down, then 3 days with or without MMS
- Challenge: methyl methanesulphonate 0.004% (w/v) for 3 days after knock-down
- Measured: 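ATP-dependent luminescence as a measure of live cells in MMS-exposed wells, quantile normalised within each plate, with replicate values also given as a mean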
- Scale: mean viability with MMS and viability with MMS: higher = more surviving cells after MMS

target gene	amplicon	mean viability with MMS	viability with MMS, replicate 1	viability with MMS, replicate 2
CG4119	DRSC17741	3.34e6	3.52e6	3.67e6
nsr (novel spermatogenesis regulator)	DRSC04427	3.58e6	4.03e6	4.32e6
nsr (novel spermatogenesis regulator)	DRSC22806	3.55e6	4.03e6	4.02e6
CG4281	DRSC18521	3.56e6	3.97e6	4.11e6
CG1136	DRSC08184	3.65e6	4.14e6	4.15e6
RpL10 (Ribosomal protein L10)	DRSC11947	3.19e6	3.62e6	3.63e6
Mid1	DRSC04230	3.41e6	3.90e6	3.87e6
Mid1	DRSC04231	3.48e6	4.01e6	3.86e6
Mid1	DRSC04308	3.32e6	3.81e6	3.62e6
Mid1	DRSC22773	3.45e6	3.93e6	3.95e6
Mid1	DRSC22803	3.43e6	3.92e6	3.92e6
CG5346	DRSC15778	3.38e6	3.96e6	3.75e6
ND-19 (NADH dehydrogenase (ubiquinone) 19 kDa subunit)	DRSC04404	3.60e6	4.10e6	3.98e6
whd (withered)	DRSC07351	3.53e6	3.95e6	4.05e6
ttv (tout-velu)	DRSC07709	3.62e6	4.00e6	4.22e6
polyph (polyphemus)	DRSC06254	3.38e6	3.79e6	3.87e6
Acp62F (Accessory gland protein 62F)	DRSC08136	3.52e6	4.06e6	3.92e6
CG40298	DRSC22274	3.48e6	3.96e6	3.95e6
CG6931	DRSC10750	3.62e6	3.99e6	4.22e6
ORY (Occludin-Related Y)	DRSC22883	3.37e6	3.92e6	3.85e6
Dok (Downstream of kinase)	DRSC18204	3.04e6	3.64e6	3.40e6
eIF3k (eukaryotic translation initiation factor 3 subunit k)	DRSC04056	3.32e6	3.48e6	3.70e6
Pomp	DRSC03201	2.59e6	3.32e6	2.49e6
CG12825	DRSC06174	3.73e6	3.89e6	3.88e6
rump (rumpelstiltskin)	DRSC16480	3.43e6	3.92e6	3.81e6
mir-210 (retired record)	DRSC19230	3.55e6	4.02e6	4.02e6
CG13601	DRSC14604	3.26e6	3.71e6	3.75e6
Vmat + CG13330	DRSC06365	3.81e6	4.27e6	4.32e6
CG30458	DRSC06660	3.75e6	4.08e6	4.00e6
Ir7b (Ionotropic receptor 7b)	DRSC18009	3.28e6	3.66e6	3.72e6
ppk16 (pickpocket 16)	DRSC02736	3.55e6	4.05e6	4.02e6
CG13385	DRSC02259	3.48e6	3.92e6	3.97e6
mnb (minibrain)	DRSC20058	3.28e6	3.69e6	3.61e6
mnb (minibrain)	DRSC20353	3.40e6	3.89e6	3.76e6
mnb (minibrain)	DRSC23347	2.60e6	2.57e6	3.11e6
ogre (optic ganglion reduced)	DRSC18809	3.50e6	3.94e6	3.75e6
Ptr (Patched-related)	DRSC04852	3.41e6	3.78e6	3.90e6
Ptr (Patched-related)	DRSC21517	3.63e6	4.15e6	4.07e6
CG42720 (retired record)	DRSC22549	3.59e6	3.99e6	4.11e6
hep (hemipterous)	DRSC19839	3.41e6	3.90e6	3.86e6
hep (hemipterous)	DRSC20337	3.51e6	4.05e6	3.89e6
Cpr47Ef (Cuticular protein 47Ef)	DRSC06336	3.49e6	3.97e6	3.74e6
Cpr47Ef (Cuticular protein 47Ef)	DRSC22450	3.42e6	3.95e6	3.88e6
Hydr2 (alpha/beta hydrolase2)	DRSC00607	3.55e6	3.96e6	4.07e6
CG15464 (retired record)	DRSC18047	3.56e6	4.04e6	4.05e6
CG15464 (retired record)	DRSC22086	3.70e6	4.17e6	4.14e6
bsf (bicoid stability factor)	DRSC02035	3.40e6	3.78e6	3.86e6
uri (unconventional prefoldin RPB5 interactor)	DRSC04111	3.62e6	3.92e6	4.15e6
Hcs (Holocarboxylase synthetase)	DRSC12070	3.62e6	4.12e6	4.05e6
Hcs (Holocarboxylase synthetase)	DRSC12256	3.53e6	3.99e6	4.02e6
DptA (Diptericin A)	DRSC07404	3.43e6	3.97e6	3.78e6
Culd (CUB and LDLa domain)	DRSC10262	3.56e6	4.03e6	4.06e6
CG31437	DRSC13711	3.49e6	3.99e6	3.94e6
Fer3HCH (Ferritin 3 heavy chain homologue)	DRSC19892	3.62e6	4.13e6	4.06e6
RhoGEF3 (retired record)	DRSC08266	3.48e6	3.95e6	3.93e6
RhoGEF3 (retired record)	DRSC08353	3.48e6	3.98e6	3.91e6
CG11200	DRSC06060	3.48e6	3.94e6	3.93e6
CG14309	DRSC14788	3.47e6	3.85e6	4.03e6
CG32726	DRSC17521	3.84e6	4.39e6	4.21e6
CG13712	DRSC08321	3.64e6	4.24e6	4.03e6
hook	DRSC03545	3.57e6	4.03e6	4.09e6
CG34161	DRSC01132	3.48e6	3.96e6	3.93e6
CG13423	DRSC06386	3.36e6	3.75e6	3.82e6
CG14757	DRSC06492	3.66e6	4.06e6	4.16e6
CG10237	DRSC02029	3.79e6	4.39e6	4.23e6
CG14667	DRSC12253	3.66e6	4.19e6	4.10e6
Gr59a (Gustatory receptor 59a)	DRSC21550	3.42e6	3.99e6	3.81e6
DptB (Diptericin B)	DRSC06001	3.55e6	4.15e6	3.89e6
